According to the supplement of paper PMC10849652:
This is one part of the list.

By UniProt entry, the sequences of proteins in these tests, tags left out. Where a name states a change or a piece, a line headed by the entry shows the natural chain unless it says otherwise.
UniProt Q15019: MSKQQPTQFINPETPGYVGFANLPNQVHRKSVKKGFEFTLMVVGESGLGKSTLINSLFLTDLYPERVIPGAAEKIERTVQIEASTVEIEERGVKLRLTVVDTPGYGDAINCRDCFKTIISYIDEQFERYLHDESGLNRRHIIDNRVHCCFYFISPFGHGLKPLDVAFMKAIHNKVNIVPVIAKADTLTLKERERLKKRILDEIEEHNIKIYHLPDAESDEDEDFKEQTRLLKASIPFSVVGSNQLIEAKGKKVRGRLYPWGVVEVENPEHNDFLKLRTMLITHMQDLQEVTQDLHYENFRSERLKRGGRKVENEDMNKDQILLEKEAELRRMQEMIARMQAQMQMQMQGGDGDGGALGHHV
UniProt P60468, whole entry, looked up: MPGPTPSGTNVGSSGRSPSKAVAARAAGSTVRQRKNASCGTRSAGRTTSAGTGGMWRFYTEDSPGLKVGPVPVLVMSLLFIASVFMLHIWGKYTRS
UniProt Q9UQ13: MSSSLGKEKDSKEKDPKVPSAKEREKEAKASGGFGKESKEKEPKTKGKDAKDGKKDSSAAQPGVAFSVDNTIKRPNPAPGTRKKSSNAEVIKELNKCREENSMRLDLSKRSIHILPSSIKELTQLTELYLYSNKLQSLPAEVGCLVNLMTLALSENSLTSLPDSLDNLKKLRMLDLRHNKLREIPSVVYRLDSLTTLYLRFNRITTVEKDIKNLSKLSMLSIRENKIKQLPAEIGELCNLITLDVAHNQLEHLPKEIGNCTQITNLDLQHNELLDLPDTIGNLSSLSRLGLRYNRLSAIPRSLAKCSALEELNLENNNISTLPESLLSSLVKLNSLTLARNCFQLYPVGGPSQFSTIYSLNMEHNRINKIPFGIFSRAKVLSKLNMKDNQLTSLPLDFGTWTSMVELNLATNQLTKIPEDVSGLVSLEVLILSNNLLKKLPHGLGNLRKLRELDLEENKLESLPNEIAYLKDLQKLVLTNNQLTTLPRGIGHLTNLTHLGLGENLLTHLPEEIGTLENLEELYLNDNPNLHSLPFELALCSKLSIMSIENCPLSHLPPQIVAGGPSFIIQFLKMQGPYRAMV
UniProt P61619, whole entry, looked up: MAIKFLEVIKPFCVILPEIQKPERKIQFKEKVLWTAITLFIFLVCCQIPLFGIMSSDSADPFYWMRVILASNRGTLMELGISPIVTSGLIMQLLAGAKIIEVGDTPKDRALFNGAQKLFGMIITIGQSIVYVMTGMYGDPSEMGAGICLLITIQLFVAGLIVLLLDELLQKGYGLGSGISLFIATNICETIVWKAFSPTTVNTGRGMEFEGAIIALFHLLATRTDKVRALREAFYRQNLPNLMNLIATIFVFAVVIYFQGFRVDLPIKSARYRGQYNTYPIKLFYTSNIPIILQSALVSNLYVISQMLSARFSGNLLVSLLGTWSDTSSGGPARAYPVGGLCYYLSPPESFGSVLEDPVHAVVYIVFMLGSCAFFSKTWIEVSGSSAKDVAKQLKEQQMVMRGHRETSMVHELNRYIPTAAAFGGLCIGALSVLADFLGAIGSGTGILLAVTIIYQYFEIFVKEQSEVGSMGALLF
UniProt Q9Y371: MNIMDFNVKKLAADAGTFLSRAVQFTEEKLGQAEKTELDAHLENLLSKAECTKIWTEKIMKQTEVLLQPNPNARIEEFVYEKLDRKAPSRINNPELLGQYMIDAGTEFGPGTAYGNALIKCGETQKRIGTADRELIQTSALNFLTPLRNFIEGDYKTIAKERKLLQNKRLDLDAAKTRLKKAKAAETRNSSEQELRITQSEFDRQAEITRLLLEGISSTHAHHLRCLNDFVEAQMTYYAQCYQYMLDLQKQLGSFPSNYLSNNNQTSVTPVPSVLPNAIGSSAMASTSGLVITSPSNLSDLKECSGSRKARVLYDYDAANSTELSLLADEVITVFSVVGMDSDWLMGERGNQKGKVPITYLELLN
UniProt Q13228: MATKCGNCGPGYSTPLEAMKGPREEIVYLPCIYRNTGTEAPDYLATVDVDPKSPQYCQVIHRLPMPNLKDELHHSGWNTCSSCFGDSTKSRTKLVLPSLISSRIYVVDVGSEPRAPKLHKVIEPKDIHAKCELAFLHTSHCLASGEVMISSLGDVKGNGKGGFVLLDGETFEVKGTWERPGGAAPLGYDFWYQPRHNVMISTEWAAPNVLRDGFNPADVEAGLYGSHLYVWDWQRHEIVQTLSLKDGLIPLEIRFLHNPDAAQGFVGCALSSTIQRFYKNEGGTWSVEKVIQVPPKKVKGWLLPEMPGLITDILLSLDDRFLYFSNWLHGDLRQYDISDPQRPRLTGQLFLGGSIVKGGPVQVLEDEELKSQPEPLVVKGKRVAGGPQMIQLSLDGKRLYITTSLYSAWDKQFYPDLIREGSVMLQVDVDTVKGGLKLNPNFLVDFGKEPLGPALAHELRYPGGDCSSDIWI
UniProt P34897: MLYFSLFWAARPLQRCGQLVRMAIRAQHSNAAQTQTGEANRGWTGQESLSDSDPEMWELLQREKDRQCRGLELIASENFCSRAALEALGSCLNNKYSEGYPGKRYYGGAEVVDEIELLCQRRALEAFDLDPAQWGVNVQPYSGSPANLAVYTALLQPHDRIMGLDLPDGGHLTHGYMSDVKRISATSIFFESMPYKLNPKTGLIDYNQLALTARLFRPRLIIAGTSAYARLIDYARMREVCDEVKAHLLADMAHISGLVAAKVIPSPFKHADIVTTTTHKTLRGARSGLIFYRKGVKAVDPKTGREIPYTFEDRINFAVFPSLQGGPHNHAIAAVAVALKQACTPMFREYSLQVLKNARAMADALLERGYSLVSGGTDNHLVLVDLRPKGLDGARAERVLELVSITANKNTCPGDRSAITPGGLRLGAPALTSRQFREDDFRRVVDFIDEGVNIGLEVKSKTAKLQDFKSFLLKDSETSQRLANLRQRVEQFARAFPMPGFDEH
UniProt Q96ST3: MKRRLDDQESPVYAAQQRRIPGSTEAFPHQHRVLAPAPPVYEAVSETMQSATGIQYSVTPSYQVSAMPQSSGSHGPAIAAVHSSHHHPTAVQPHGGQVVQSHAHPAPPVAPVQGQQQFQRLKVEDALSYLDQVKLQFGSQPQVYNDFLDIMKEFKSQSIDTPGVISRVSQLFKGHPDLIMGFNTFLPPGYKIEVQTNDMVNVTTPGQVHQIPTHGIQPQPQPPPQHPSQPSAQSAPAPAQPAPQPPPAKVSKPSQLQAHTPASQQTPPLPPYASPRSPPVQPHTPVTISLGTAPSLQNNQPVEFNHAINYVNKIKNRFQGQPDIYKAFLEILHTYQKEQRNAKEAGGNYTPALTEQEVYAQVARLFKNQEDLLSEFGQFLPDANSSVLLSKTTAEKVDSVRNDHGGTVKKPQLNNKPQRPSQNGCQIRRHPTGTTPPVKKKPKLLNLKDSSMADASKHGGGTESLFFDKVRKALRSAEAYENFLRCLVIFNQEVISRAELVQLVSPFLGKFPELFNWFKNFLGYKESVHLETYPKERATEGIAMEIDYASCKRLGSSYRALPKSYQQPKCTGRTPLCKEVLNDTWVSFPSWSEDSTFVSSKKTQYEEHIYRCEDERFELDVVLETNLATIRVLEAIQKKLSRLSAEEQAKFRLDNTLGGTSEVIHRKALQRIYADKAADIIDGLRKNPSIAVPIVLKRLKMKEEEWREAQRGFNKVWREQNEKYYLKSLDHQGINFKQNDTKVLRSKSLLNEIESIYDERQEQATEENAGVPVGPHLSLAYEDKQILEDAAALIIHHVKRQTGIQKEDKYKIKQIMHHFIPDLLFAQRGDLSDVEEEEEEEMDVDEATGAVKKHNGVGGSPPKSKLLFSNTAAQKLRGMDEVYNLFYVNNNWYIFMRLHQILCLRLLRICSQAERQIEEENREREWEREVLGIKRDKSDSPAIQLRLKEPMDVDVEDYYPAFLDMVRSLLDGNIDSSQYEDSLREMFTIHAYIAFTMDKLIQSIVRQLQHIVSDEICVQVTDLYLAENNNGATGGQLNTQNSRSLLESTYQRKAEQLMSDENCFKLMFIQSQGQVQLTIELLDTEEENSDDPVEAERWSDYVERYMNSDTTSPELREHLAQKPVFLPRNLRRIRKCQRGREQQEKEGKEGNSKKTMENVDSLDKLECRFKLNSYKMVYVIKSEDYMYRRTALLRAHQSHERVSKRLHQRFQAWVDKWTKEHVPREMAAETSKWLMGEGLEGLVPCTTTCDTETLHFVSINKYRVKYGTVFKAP
UniProt Q9H9B4: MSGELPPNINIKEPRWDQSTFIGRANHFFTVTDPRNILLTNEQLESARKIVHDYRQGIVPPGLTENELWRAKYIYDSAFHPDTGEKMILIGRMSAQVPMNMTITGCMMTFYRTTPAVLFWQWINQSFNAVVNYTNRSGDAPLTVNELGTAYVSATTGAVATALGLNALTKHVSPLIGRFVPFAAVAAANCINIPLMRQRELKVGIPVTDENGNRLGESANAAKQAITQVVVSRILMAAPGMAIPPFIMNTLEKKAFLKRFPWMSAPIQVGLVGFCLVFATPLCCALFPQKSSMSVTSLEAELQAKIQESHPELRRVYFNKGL
UniProt Q96EB6: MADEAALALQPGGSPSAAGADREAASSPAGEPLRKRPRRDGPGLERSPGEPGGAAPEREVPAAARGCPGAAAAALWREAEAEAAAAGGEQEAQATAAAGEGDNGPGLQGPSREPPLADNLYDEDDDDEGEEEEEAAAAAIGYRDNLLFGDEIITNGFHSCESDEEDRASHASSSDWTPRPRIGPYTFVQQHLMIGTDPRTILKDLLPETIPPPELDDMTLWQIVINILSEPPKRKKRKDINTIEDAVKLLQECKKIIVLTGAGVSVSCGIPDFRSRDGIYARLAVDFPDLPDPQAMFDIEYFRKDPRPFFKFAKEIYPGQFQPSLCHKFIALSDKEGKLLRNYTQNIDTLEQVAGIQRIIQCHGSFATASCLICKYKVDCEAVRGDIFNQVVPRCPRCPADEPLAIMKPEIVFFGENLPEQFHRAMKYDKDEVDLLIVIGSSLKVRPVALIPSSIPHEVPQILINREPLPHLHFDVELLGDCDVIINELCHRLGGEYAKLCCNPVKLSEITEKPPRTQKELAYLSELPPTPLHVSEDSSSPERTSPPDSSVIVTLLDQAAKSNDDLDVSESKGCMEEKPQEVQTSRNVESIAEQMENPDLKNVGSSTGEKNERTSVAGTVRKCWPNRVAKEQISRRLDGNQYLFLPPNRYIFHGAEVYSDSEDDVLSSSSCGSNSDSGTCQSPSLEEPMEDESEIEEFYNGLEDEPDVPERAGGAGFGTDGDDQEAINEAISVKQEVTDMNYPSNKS
UniProt Q9Y3L3: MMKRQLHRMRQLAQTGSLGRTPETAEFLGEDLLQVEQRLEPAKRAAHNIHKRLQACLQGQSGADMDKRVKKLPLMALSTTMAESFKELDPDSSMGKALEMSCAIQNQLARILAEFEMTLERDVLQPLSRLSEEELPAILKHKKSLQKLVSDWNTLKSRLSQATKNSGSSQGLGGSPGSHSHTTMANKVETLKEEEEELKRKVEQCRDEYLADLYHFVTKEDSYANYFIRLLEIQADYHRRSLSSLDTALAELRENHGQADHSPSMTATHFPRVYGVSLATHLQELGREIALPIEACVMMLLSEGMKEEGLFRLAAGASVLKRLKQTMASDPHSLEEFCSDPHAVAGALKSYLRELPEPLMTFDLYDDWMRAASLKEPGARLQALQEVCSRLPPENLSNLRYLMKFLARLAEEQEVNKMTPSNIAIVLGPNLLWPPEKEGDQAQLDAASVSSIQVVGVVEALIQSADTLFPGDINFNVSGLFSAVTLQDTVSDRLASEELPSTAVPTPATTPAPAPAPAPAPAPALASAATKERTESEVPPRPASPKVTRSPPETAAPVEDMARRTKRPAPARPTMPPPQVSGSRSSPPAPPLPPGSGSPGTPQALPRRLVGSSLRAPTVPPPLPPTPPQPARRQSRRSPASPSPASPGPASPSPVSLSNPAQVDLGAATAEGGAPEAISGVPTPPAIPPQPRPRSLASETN
UniProt Q9H299: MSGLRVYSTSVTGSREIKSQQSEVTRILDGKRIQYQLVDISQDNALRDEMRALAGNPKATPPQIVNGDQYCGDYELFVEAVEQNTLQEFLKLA
UniProt Q12874: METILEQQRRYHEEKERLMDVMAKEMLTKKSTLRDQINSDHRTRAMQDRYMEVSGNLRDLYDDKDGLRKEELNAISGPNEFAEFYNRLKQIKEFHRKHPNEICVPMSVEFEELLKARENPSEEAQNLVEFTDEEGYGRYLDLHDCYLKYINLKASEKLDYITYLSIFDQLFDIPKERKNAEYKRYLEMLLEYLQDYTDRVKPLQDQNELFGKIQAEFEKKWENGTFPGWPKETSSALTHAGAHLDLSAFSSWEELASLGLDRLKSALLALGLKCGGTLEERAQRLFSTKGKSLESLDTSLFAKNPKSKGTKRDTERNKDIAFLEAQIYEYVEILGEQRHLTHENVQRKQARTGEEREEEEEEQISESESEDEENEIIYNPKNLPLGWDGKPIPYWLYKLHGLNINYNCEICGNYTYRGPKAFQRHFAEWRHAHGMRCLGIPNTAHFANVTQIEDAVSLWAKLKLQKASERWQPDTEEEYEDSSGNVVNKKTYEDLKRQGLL

Legend:
Test in all cases: log2 fold change, soluble protein after heating vs DMSO (PISA); higher = thermal stabilisation; K562 cells, 10 uM, 30 min; active = over 0.2 and 3.5 SD of the protein, either way, in both replicates (recomputed)
[1] = compound: COC1=CC=C(C=C1)CN2C=CC3=C2C=C(C=C3)C(=O)NO
In short: (§1)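 Values are thermal stability changes relative to control samples and are taken from duplicates. They are stated as log2 fold changes. Before quantification by TMTpro 16plex LC-MS/MS with equalised channel sums, K562 cells at 2×10^6 cells/mL were treated with 10 μM compound for 30 min, heated in aliquots for 3 min across 48°C-58°C, pooled, extracted in PBS with 0.5% NP-40 at 4°C, and centrifuged at 21,000xg for 90 min to give the soluble supernatant.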

filanesib = compound: CON(C)C(=O)N1N=C(c2cc(F)ccc2F)S[C@@]1(CCCN)c1ccccc1 [filanesib]
In short: as §1

zotarolimus = compound: CO[C@H]1C[C@@H]2CC[C@@H](C)[C@@](O)(O2)C(=O)C(=O)N2CCCC[C@H]2C(=O)O[C@H]([C@H](C)C[C@@H]2CC[C@H](n3cnnn3)[C@H](OC)C2)CC(=O)[C@H](C)/C=C(\C)[C@@H](O)[C@@H](OC)C(=O)[C@H](C)C[C@H](C)/C=C/C=C/C=C/1C [zotarolimus]
In short: as §1

idasanutlin = compound: COc1cc(C(=O)O)ccc1NC(=O)[C@@H]1N[C@@H](CC(C)(C)C)[C@](C#N)(c2ccc(Cl)cc2F)[C@H]1c1cccc(Cl)c1F [idasanutlin]
In short: as §1

alisertib = compound: COc1cc(Nc2ncc3c(n2)-c2ccc(Cl)cc2C(c2c(F)cccc2OC)=NC3)ccc1C(=O)O [alisertib]
In short: as §1

[2] = compound: COc1cc2nc(-c3cc(F)ccc3O)nc(N[C@@H]3CNC[C@H]3C(C)(C)O)c2cc1OC
In short: as §1

gefitinib = compound: COc1cc2ncnc(Nc3ccc(F)c(Cl)c3)c2cc1OCCCN1CCOCC1 [gefitinib]
In short: as §1

[3] = compound: COc1cccc2cc(-c3nc([C@H]4CC[C@H](C(=O)O)CC4)n4ncnc(N)c34)[nH]c12
In short: as §1

lapatinib = compound: CS(=O)(=O)CCNCc1ccc(-c2ccc3ncnc(Nc4ccc(OCc5cccc(F)c5)c(Cl)c4)c3c2)o1 [lapatinib]
In short: as §1

pictilisib = compound: CS(=O)(=O)N1CCN(Cc2cc3nc(-c4cccc5[nH]ncc45)nc(N4CCOCC4)c3s2)CC1 [pictilisib]
In short: as §1

[4] = compound: CS(=O)(=O)c1ccc(-c2cnc(N)c(C(=O)Nc3ccccc3)n2)cc1
In short: as §1

crizotinib = compound: C[C@@H](Oc1cc(-c2cnn(C3CCNCC3)c2)cnc1N)c1c(Cl)ccc(F)c1Cl [crizotinib]
In short: as §1

[5] = compound: C[C@@H]1COCCN1C2=NC(=NC(=C2)C3(CC3)S(=O)(=O)C)C4=C5C=CNC5=CC=C4
In short: as §1

[6] = compound: C[C@H](C1=CC=C(C=C1)C(=O)NC2=C3C=CNC3=NC=C2)N
In short: as §1

duvelisib = compound: C[C@H](Nc1ncnc2nc[nH]c12)c1cc2cccc(Cl)c2c(=O)n1-c1ccccc1 [duvelisib]
In short: as §1

gandotinib = compound: Cc1cc(Nc2cc(CN3CCOCC3)c3nc(C)c(Cc4ccc(Cl)cc4F)n3n2)n[nH]1 [gandotinib]
In short: as §1

tozasertib = compound: Cc1cc(Nc2cc(N3CCN(C)CC3)nc(Sc3ccc(NC(=O)C4CC4)cc3)n2)n[nH]1 [tozasertib]
In short: as §1

[7] = compound: Cc1cc(SCc2sc(-c3ccc(C(F)(F)F)cc3)nc2C)ccc1OCC(=O)O
In short: as §1

doramapimod = compound: Cc1ccc(-n2nc(C(C)(C)C)cc2NC(=O)Nc2ccc(OCCN3CCOCC3)c3ccccc23)cc1 [doramapimod]
In short: as §1

ispinesib = compound: Cc1ccc(C(=O)N(CCCN)[C@@H](c2nc3cc(Cl)ccc3c(=O)n2Cc2ccccc2)C(C)C)cc1 [ispinesib]
In short: as §1

Measured: log2 fold change

SEPTIN2 isoform 2 (UniProt Q15019)
inactive: [1] -0.012 | filanesib 0.003 | zotarolimus -0.028 | idasanutlin -0.037 | alisertib -0.043 | [2] 0.031 | gefitinib -0.003 | [3] 0.067 | lapatinib -0.026 | pictilisib 0.018 | [4] 0.041 | crizotinib 0.051 | [5] 0.056 | [6] -0.026 | duvelisib 0.01 | gandotinib 0.018 | tozasertib -0.018 | [7] -0.027 | doramapimod 0.009 | ispinesib 0.032

SEC61B (UniProt P60468)
inactive: [1] -0.17 | filanesib -0.029 | zotarolimus -0.054 | idasanutlin 0.021 | alisertib -0.011 | [2] -0.005 | gefitinib 0.026 | [3] 0.063 | lapatinib -0.026 | pictilisib -0.056 | [4] 0.004 | crizotinib 0.075 | [5] -0.027 | [6] -0.024 | duvelisib 0.013 | gandotinib 0.064 | tozasertib -0.015 | [7] -0.092 | doramapimod 0 | ispinesib 0.005

SHOC2 (UniProt Q9UQ13)
inactive: [1] 0.025 | filanesib -0.168 | zotarolimus 0.03 | idasanutlin -0.092 | alisertib -0.021 | [2] 0.028 | gefitinib 0.032 | [3] 0.062 | lapatinib 0.018 | pictilisib 0.086 | [4] 0.078 | crizotinib 0.017 | [5] 0.018 | [6] -0.002 | duvelisib 0.013 | gandotinib 0 | tozasertib -0.034 | [7] 0.005 | doramapimod 0.012 | ispinesib -0.008

SIL1 (UniProt Q9H173)
inactive: [1] -0.092 | filanesib 0.071 | zotarolimus -0.01 | idasanutlin 0.013 | alisertib -0.066 | [2] -0.051 | gefitinib 0.005 | [3] -0.034 | lapatinib 0.075 | pictilisib -0.001 | [4] 0.007 | crizotinib -0.008 | [5] -0.024 | [6] 0.14 | duvelisib 0.016 | gandotinib 0.013 | tozasertib 0.03 | [7] -0.016 | doramapimod 0.076 | ispinesib 0.102

SEC61A1 (UniProt P61619)
inactive: [1] 0.002 | filanesib -0.044 | zotarolimus 0.01 | idasanutlin -0.064 | alisertib 0.061 | [2] 0.013 | gefitinib -0.007 | [3] 0.077 | lapatinib -0.074 | pictilisib 0.063 | [4] 0.025 | crizotinib 0.073 | [5] 0 | [6] -0.078 | duvelisib 0.081 | gandotinib -0.011 | tozasertib 0.002 | [7] -0.007 | doramapimod -0.021 | ispinesib 0.016

SH3GLB1 isoform 2 (UniProt Q9Y371)
inactive: [1] 0.035 | filanesib 0.041 | zotarolimus 0.007 | idasanutlin 0.075 | alisertib -0.022 | [2] -0.057 | gefitinib -0.011 | [3] -0.067 | lapatinib 0.031 | pictilisib -0.064 | [4] 0.018 | crizotinib -0.222 | [5] -0.023 | [6] 0.043 | duvelisib -0.07 | gandotinib -0.147 | tozasertib -0.049 | [7] 0.176 | doramapimod 0.008 | ispinesib -0.307

SEPHS2 (UniProt Q99611)
inactive: [1] 0.046 | filanesib -0.055 | zotarolimus 0.023 | idasanutlin 0.004 | alisertib -0.067 | [2] -0.061 | gefitinib -0.024 | [3] 0.204 | lapatinib 0.057 | pictilisib -0.174 | [4] 0.005 | crizotinib -0.034 | [5] -0.024 | [6] -0.07 | duvelisib -0.03 | gandotinib -0.123 | tozasertib -0.003 | [7] -0.015 | doramapimod -0.048 | ispinesib 0.139

SELENBP1 isoform 4 (UniProt Q13228)
inactive: [1] 0.112 | filanesib -0.071 | zotarolimus 0.008 | idasanutlin -0.012 | alisertib -0.082 | [2] -0.017 | gefitinib -0.008 | [3] 0.041 | lapatinib -0.012 | pictilisib -0.006 | [4] 0.001 | crizotinib 0.003 | [5] 0.055 | [6] -0.045 | duvelisib 0.009 | gandotinib -0.025 | tozasertib -0.029 | [7] -0.057 | doramapimod -0.017 | ispinesib 0.072

SHMT2 (UniProt P34897)
inactive: [1] 0.007 | filanesib -0.056 | zotarolimus -0.014 | idasanutlin -0.021 | alisertib -0.04 | [2] 0.016 | gefitinib 0.013 | [3] 0.043 | lapatinib -0.03 | pictilisib 0.019 | [4] -0.012 | crizotinib 0.035 | [5] 0.074 | [6] -0.038 | duvelisib 0.005 | gandotinib 0 | tozasertib -0.018 | [7] -0.03 | doramapimod -0.01 | ispinesib 0.015

SIN3A (UniProt Q96ST3)
inactive: [1] -0.012 | filanesib 0.122 | zotarolimus 0 | idasanutlin 0.068 | alisertib -0.125 | [2] -0.043 | gefitinib -0.014 | [3] -0.103 | lapatinib 0.036 | pictilisib 0.076 | [4] -0.106 | crizotinib -0.032 | [5] -0.004 | [6] -0.015 | duvelisib 0.019 | gandotinib -0.134 | tozasertib 0.186 | [7] -0.031 | doramapimod 0.047 | ispinesib -0.096

SEMA4C (UniProt Q9C0C4)
inactive: [1] -0.011 | filanesib 0.042 | zotarolimus -0.045 | idasanutlin 0.028 | alisertib -0.041 | [2] 0.018 | gefitinib 0.017 | [3] 0.092 | lapatinib 0.006 | pictilisib 0.074 | [4] 0.002 | crizotinib -0.065 | [5] 0.04 | [6] 0.009 | duvelisib 0.008 | gandotinib 0.031 | tozasertib -0.082 | [7] -0.026 | doramapimod -0.158 | ispinesib -0.044

SFXN1 (UniProt Q9H9B4)
inactive: [1] 0.086 | filanesib -0.11 | zotarolimus 0.009 | idasanutlin -0.097 | alisertib -0.064 | [2] -0.132 | gefitinib 0.003 | [3] 0.018 | lapatinib 0.017 | pictilisib -0.052 | [4] 0 | crizotinib -0.01 | [5] 0.139 | [6] -0.069 | duvelisib 0.049 | gandotinib -0.094 | tozasertib -0.014 | [7] -0.023 | doramapimod -0.035 | ispinesib -0.014

SIRT1 (UniProt Q96EB6)
inactive: [1] 0.011 | filanesib -0.006 | zotarolimus 0.018 | idasanutlin 0.161 | alisertib -0.022 | [2] -0.006 | gefitinib -0.035 | [3] -0.062 | lapatinib -0.019 | pictilisib 0.026 | [4] 0.043 | crizotinib 0.042 | [5] -0.012 | [6] -0.044 | duvelisib 0.026 | gandotinib -0.03 | tozasertib 0.032 | [7] 0.015 | doramapimod 0.006 | ispinesib 0.012

SH3BP1 (UniProt Q9Y3L3)
inactive: [1] 0.014 | filanesib 0.01 | zotarolimus 0.018 | idasanutlin -0.007 | alisertib -0.022 | [2] 0.054 | gefitinib 0.003 | [3] 0.019 | lapatinib 0.011 | pictilisib 0.097 | [4] 0.044 | crizotinib -0.04 | [5] 0.017 | [6] -0.067 | duvelisib 0.037 | gandotinib 0.006 | tozasertib -0.02 | [7] -0.004 | doramapimod -0.007 | ispinesib 0.022

SH3BGRL3 (UniProt Q9H299)
inactive: [1] -0.063 | filanesib 0.005 | zotarolimus 0.067 | idasanutlin -0.019 | alisertib -0.054 | [2] -0.076 | gefitinib 0.023 | [3] 0.019 | lapatinib 0.152 | pictilisib 0.019 | [4] 0.013 | crizotinib 0.084 | [5] 0.139 | [6] -0.102 | duvelisib 0.036 | gandotinib -0.019 | tozasertib 0.035 | [7] -0.023 | doramapimod 0.021 | ispinesib 0

Retrieved one by one from the list above, two records:
SIN3A (UniProt Q96ST3)
inactive: [1] -0.012 | filanesib 0.122 | zotarolimus 0 | idasanutlin 0.068 | alisertib -0.125 | [2] -0.043 | gefitinib -0.014 | [3] -0.103 | lapatinib 0.036 | pictilisib 0.076 | [4] -0.106 | crizotinib -0.032 | [5] -0.004 | [6] -0.015 | duvelisib 0.019 | gandotinib -0.134 | tozasertib 0.186 | [7] -0.031 | doramapimod 0.047 | ispinesib -0.096

SHOC2 (UniProt Q9UQ13)
inactive: [1] 0.025 | filanesib -0.168 | zotarolimus 0.03 | idasanutlin -0.092 | alisertib -0.021 | [2] 0.028 | gefitinib 0.032 | [3] 0.062 | lapatinib 0.018 | pictilisib 0.086 | [4] 0.078 | crizotinib 0.017 | [5] 0.018 | [6] -0.002 | duvelisib 0.013 | gandotinib 0 | tozasertib -0.034 | [7] 0.005 | doramapimod 0.012 | ispinesib -0.008

Next results follow:

SF3A3 (UniProt Q12874)
inactive: [1] -0.015 | filanesib 0.128 | zotarolimus 0.073 | idasanutlin 0.039 | alisertib -0.081 | [2] 0.154 | gefitinib 0.028 | [3] -0.064 | lapatinib -0.005 | pictilisib 0.009 | [4] 0 | crizotinib 0.118 | [5] -0.009 | [6] 0.055 | duvelisib 0.011 | gandotinib -0.013 | tozasertib 0.006 | [7] 0.136 | doramapimod -0.002 | ispinesib 0.119
